This is an account of results in US20190135887A1 (UNIVERSITÉ DE STRASBOURG, priority 2016, published 2019).

The nature of series [1]: general procedure: Fmoc solid-phase peptide synthesis; Rink resin; HBTU, HOBt, DIPEA. Particulars: whole synthesis; for isolated yield: on resin loading.
Series [2] can be described thus: general procedure: Fmoc solid-phase peptide synthesis; Fmoc-protected Rink Amide NovaGel resin (0.7 mmol/g); Fmoc-protected Wang NovaGel resin (0.1 mmol/g); HBTU, HOBt, DIPEA. The settings on record: whole synthesis.

For part of these data: The same purity stands for every peptide and may come from a single statement.

As for “CF3(CF2)7(CH2)2C(O)-Arg-Gly-Arg-Asn-Trp-Thr-Pro-Gln-Ala-Met-Leu-Tyr-Leu-Lys-Gly-Ala-Gln”, in series [1] (scale 29 μmol), the isolated yield worked out at 13% and the isolated mass is 10.5 mg. The “final HPLC purity” value in series [2] (220.8 nm) is given as over 95%.

In series [1] (scale 21 μmol), “Acetyl-Asn-Trp-Thr-Pro-Gln-Ala-Met-Leu-Tyr-Leu-Lys-Gly-Ala-Gln-Lys(Arg-Gly-Arg-(C(O)(CH2)2(CF2)7CF3))” displayed an isolated yield of 5.6% and an isolated mass of 3.1 mg. The “final HPLC purity” value in series [2] (220 nm) was over 95%.

In series [1] (scale 23 μmol), “CF3(CF2)7(CH2)2C(O)-Asn-Trp-Thr-Pro-Gln-Ala-Met-Leu-Tyr-Leu-Lys-Gly-Ala-Gln” gave an isolated yield of 14% and an isolated mass of 6.9 mg. Further, in series [2] (220 nm), the “final HPLC purity” value is over 95%.

As for “Acetyl-Asn-Trp-Thr-Pro-Gln-Ala-Met-Leu-Tyr-Leu-Lys-Gly-Ala-Gln-Lys(C(O)(CH2)2(CF2)7CF3)”, in series [1] (scale 22 μmol), the isolated yield stood at 8.6% and the isolated mass is reported as 4.5 mg. The “final HPLC purity” value in series [2] (220 nm) is on record as over 95%.
